# Results from patent US20250283871A1, “COMPOSITIONS AND METHODS FOR MODULATING THE INTERACTION BETWEEN SS18-SSX FUSION ONCOPROTEIN AND NUCLEOSOMES” (Dana-Farber Cancer Institute, Inc., priority 2020, published 2025).
# Test system: BAF complex subunits and histone proteins
# Experiment: Mass spectrometry proteomics of purified HA-SS18 WT and HA-SS18-SSX1 complexes (Tables 5A-5E)
# Parameters: species or system human
# [1] = HA-SS18SSX1_CHR_peptides: protein identified in the HA-SS18-SSX1 purification from solubilized chromatin (CHR), HEK-293T
# [2] = HA-SS18SSX1 purification, NE (soluble nuclear extract) fraction, HEK-293T, peptides per identified protein
# [3] = HA-SS18WT_CHR_peptides: HA-SS18 WT purification from nuclease-treated solubilized chromatin (CHR), HEK-293T, label = protein identified
# [4] = HA-SS18WT_NE_peptides: proteins co-purified with HA-SS18 WT from nuclear extract (NE), HEK-293T
# [5] = HA-SS18SSX1_CHR_peptides: proteins found in HA-SS18-SSX1 BAF complex purification from solubilized chromatin (CHR), HEK-293T
# [6] = HA-SS18SSX1_NE_peptides: protein co-purified with HA-SS18-SSX1 BAF complexes from soluble nuclear extract (NE), HEK-293T cells
# [7] = HA-SS18WT_NE_peptides: HA-SS18 WT complexes purified from nuclear extract (NE), HEK-293T, label = protein identified (Gene Symbol)
molecule,measurement,setting,value
"PRPF19 (protein, UniProt Q9UMS4 2-504, looked up) Pre-mRNA-processing factor 19: SLICSISNEVPEHPCVSPVSNHVYERRLIEKYIAENGTDPINNQPLSEEQLIDIKVAHPIRPKPPSATSIPAILKALQDEWDAVMLHSFTLRQQLQTTRQELSHALYQHDAACRVIARLTKEVTAAREALATLKPQAGLIVPQAVPSSQPSVVGAGEPMDLGELVGMTPEIIQKLQDKATVLTTERKKRGKTVPEELVKPEELSKYRQVASHVGLHSASIPGILALDLCPSDTNKILTGGADKNVVVFDKSSEQILATLKGHTKKVTSVVFHPSQDLVFSASPDATIRIWSVPNASCVQVVRAHESAVTGLSLHATGDYLLSSSDDQYWAFSDIQTGRVLTKVTDETSGCSLTCAQFHPDGLIFGTGTMDSQIKIWDLKERTNVANFPGHSGPITSIAFSENGYYLATAADDSSVKLWDLRKLKNFKTLQLDNNFEVKSLIFDQSGTYLALGGTDVQIYICKQWTEILHFTEHSGLTTGVAFGHHAKFIASTGMDRSLKFYSL",Total (total peptides),[1],8
same,Unique (unique peptides),[1],7
same,Total (total peptides),[2],3
same,Unique (unique peptides),[2],3
same,Total (peptides),[3],3
same,Unique (peptides),[3],3
same,Total (peptides),[4],1
same,Unique (peptides),[4],1
"DNTTIP2 (protein, UniProt Q5QJE6 1-756, looked up) Deoxynucleotidyltransferase …: MVVTRSARAKASIQAASAESSGQKSFAANGIQAHPESSTGSDARTTAESQTTGKQSLIPRTPKARKRKSRTTGSLPKGTEPSTDGETSEAESNYSVSEHHDTILRVTRRRQILIACSPVSSVRKKPKVTPTKESYTEEIVSEAESHVSGISRIVLPTEKTTGARRSKAKSLTDPSQESHTEAISDAETSSSDISFSGIATRRTRSMQRKLKAQTEKKDSKIVPGNEKQIVGTPVNSEDSDTRQTSHLQARSLSEINKPNFYNNDFDDDFSHRSSENILTVHEQANVESLKETKQNCKDLDEDANGITDEGKEINEKSSQLKNLSELQDTSLQQLVSQRHSTPQNKNAVSVHSNLNSEAVMKSLTQTFATVEVGRWNNNKKSPIKASDLTKFGDCGGSDDEEESTVISVSEDMNSEGNVDFECDTKLYTSAPNTSQGKDNSVLLVLSSDESQQSENSENEEDTLCFVENSGQRESLSGDTGSLSCDNALFVIDTTPGMSADKNFYLEEEDKASEVAIEEEKEEEEDEKSEEDSSDHDENEDEFSDEEDFLNSTKAKLLKLTSSSIDPGLSIKQLGGLYINFNADKLQSNKRTLTQIKEKKKNELLQKAVITPDFEKNHCVPPYSESKYQLQKKRRKERQKTAGDGWFGMKAPEMTNELKNDLKALKMRASMDPKRFYKKNDRDGFPKYFQIGTIVDNPADFYHSRIPKKQRKRTIVEELLADSEFRRYNRRKYSEIMAEKAANAAGKKFRKKKKFRN",Total (total peptides),[1],8
same,Unique (unique peptides),[1],8
same,Total (peptides),[3],7
same,Unique (peptides),[3],5
"MYO1C (protein, UniProt O00159 1-1063, looked up) Unconventional myosin-Ic: MALQVELVPTGEIIRVVHPHRPCKLALGSDGVRVTMESALTARDRVGVQDFVLLENFTSEAAFIENLRRRFRENLIYTYIGPVLVSVNPYRDLQIYSRQHMERYRGVSFYEVPPHLFAVADTVYRALRTERRDQAVMISGESGAGKTEATKRLLQFYAETCPAPERGGAVRDRLLQSNPVLEAFGNAKTLRNDNSSRFGKYMDVQFDFKGAPVGGHILSYLLEKSRVVHQNHGERNFHIFYQLLEGGEEETLRRLGLERNPQSYLYLVKGQCAKVSSINDKSDWKVVRKALTVIDFTEDEVEDLLSIVASVLHLGNIHFAANEESNAQVTTENQLKYLTRLLSVEGSTLREALTHRKIIAKGEELLSPLNLEQAAYARDALAKAVYSRTFTWLVGKINRSLASKDVESPSWRSTTVLGLLDIYGFEVFQHNSFEQFCINYCNEKLQQLFIELTLKSEQEEYEAEGIAWEPVQYFNNKIICDLVEEKFKGIISILDEECLRPGEATDLTFLEKLEDTVKHHPHFLTHKLADQRTRKSLGRGEFRLLHYAGEVTYSVTGFLDKNNDLLFRNLKETMCSSKNPIMSQCFDRSELSDKKRPETVATQFKMSLLQLVEILQSKEPAYVRCIKPNDAKQPGRFDEVLIRHQVKYLGLLENLRVRRAGFAYRRKYEAFLQRYKSLCPETWPTWAGRPQDGVAVLVRHLGYKPEEYKMGRTKIFIRFPKTLFATEDALEVRRQSLATKIQAAWRGFHWRQKFLRVKRSAICIQSWWRGTLGRRKAAKRKWAAQTIRRLIRGFVLRHAPRCPENAFFLDHVRTSFLLNLRRQLPQNVLDTSWPTPPPALREASELLRELCIKNMVWKYCRSISPEWKQQLQQKAVASEIFKGKKDNYPQSVPRLFISTRLGTDEISPRVLQALGSEPIQYAVPVVKYDRKGYKPRSRQLLLTPNAVVIVEDAKVKQRIDYANLTGISVSSLSDSLFVLHVQRADNKQKGDVVLQSDHVIETLTKTALSANRVNSININQGSITFAGGPGRDGTIDFTPGSELLITKAKNGHLAVVAPRLNSR",Total (total peptides),[1],8
same,Unique (unique peptides),[1],8
same,Total (peptides),[5],1
same,Unique (peptides),[5],1
same,Total (peptides),[6],2
same,Unique (peptides),[6],2
same,Total (peptides),[3],6
same,Unique (peptides),[3],5
same,Total (peptides),[7],8
same,Unique (peptides),[7],8
"CCDC86 (protein, UniProt Q9H6F5 1-360, looked up) Coiled-coil domain-containing …: MDTPLRRSRRLGGLRPESPESLTSVSRTRRALVEFESNPEETREPGSPPSVQRAGLGSPERPPKTSPGSPRLQQGAGLESPQGQPEPGAASPQRQQDLHLESPQRQPEYSPESPRCQPKPSEEAPKCSQDQGVLASELAQNKEELTPGAPQHQLPPVPGSPEPYPGQQAPGPEPSQPLLELTPRAPGSPRGQHEPSKPPPAGETVTGGFGAKKRKGSSSQAPASKKLNKEELPVIPKGKPKSGRVWKDRSKKRFSQMLQDKPLRTSWQRKMKERQERKLAKDFARHLEEEKERRRQEKKQRRAENLKRRLENERKAEVVQVIRNPAKLKRAKKKQLRSIEKRDTLALLQKQPPQQPAAKI",Total (total peptides),[1],8
same,Unique (unique peptides),[1],7
same,Total (peptides),[3],7
same,Unique (peptides),[3],7
"STAG2 (protein, UniProt Q8N3U4 1-1231, looked up) Cohesin subunit SA-2: MIAAPEIPTDFNLLQESETHFSSDTDFEDIEGKNQKQGKGKTCKKGKKGPAEKGKGGNGGGKPPSGPNRMNGHHQQNGVENMMLFEVVKMGKSAMQSVVDDWIESYKHDRDIALLDLINFFIQCSGCKGVVTAEMFRHMQNSEIIRKMTEEFDEDSGDYPLTMAGPQWKKFKSSFCEFIGVLVRQCQYSIIYDEYMMDTVISLLTGLSDSQVRAFRHTSTLAAMKLMTALVNVALNLSINMDNTQRQYEAERNKMIGKRANERLELLLQKRKELQENQDEIENMMNAIFKGVFVHRYRDAIAEIRAICIEEIGIWMKMYSDAFLNDSYLKYVGWTMHDKQGEVRLKCLTALQGLYYNKELNSKLELFTSRFKDRIVSMTLDKEYDVAVQAIKLLTLVLQSSEEVLTAEDCENVYHLVYSAHRPVAVAAGEFLYKKLFSRRDPEEDGMMKRRGRQGPNANLVKTLVFFFLESELHEHAAYLVDSMWDCATELLKDWECMNSLLLEEPLSGEEALTDRQESALIEIMLCTIRQAAECHPPVGRGTGKRVLTAKEKKTQLDDRTKITELFAVALPQLLAKYSVDAEKVTNLLQLPQYFDLEIYTTGRLEKHLDALLRQIRNIVEKHTDTDVLEACSKTYHALCNEEFTIFNRVDISRSQLIDELADKFNRLLEDFLQEGEEPDEDDAYQVLSTLKRITAFHNAHDLSKWDLFACNYKLLKTGIENGDMPEQIVIHALQCTHYVILWQLAKITESSSTKEDLLRLKKQMRVFCQICQHYLTNVNTTVKEQAFTILCDILMIFSHQIMSGGRDMLEPLVYTPDSSLQSELLSFILDHVFIEQDDDNNSADGQQEDEASKIEALHKRRNLLAAFCKLIVYTVVEMNTAADIFKQYMKYYNDYGDIIKETMSKTRQIDKIQCAKTLILSLQQLFNEMIQENGYNFDRSSSTFSGIKELARRFALTFGLDQLKTREAIAMLHKDGIEFAFKEPNPQGESHPPLNLAFLDILSEFSSKLLRQDKRTVYVYLEKFMTFQMSLRREDVWLPLMSYRNSLLAGGDDDTMSVISGISSRGSTVRSKKSKPSTGKRKVVEGMQLSLTEESSSSDSMWLSREQTLHTPVMMQTPQLTSTIMREPKRLRPEDSFMSVYPMQTEHHQTPLDYNRRGTSLMEDDEEPIVEDVMMSSEGRIEDLNEGMDFDTMDIDLPPSKNRRERTELKPDFFDPASIMDESVLGVSMF",Total (total peptides),[1],8
same,Unique (unique peptides),[1],8
same,Total (peptides),[3],6
same,Unique (peptides),[3],6
"WDR46 (protein, UniProt O15213 1-610, looked up) WD repeat-containing protein …: METAPKPGKDVPPKKDKLQTKRKKPRRYWEEETVPTTAGASPGPPRNKKNRELRPQRPKNAYILKKSRISKKPQVPKKPREWKNPESQRGLSGTQDPFPGPAPVPVEVVQKFCRIDKSRKLPHSKAKTRSRLEVAEAEEEETSIKAARSELLLAEEPGFLEGEDGEDTAKICQADIVEAVDIASAAKHFDLNLRQFGPYRLNYSRTGRHLAFGGRRGHVAALDWVTKKLMCEINVMEAVRDIRFLHSEALLAVAQNRWLHIYDNQGIELHCIRRCDRVTRLEFLPFHFLLATASETGFLTYLDVSVGKIVAALNARAGRLDVMSQNPYNAVIHLGHSNGTVSLWSPAMKEPLAKILCHRGGVRAVAVDSTGTYMATSGLDHQLKIFDLRGTYQPLSTRTLPHGAGHLAFSQRGLLVAGMGDVVNIWAGQGKASPPSLEQPYLTHRLSGPVHGLQFCPFEDVLGVGHTGGITSMLVPGAGEPNFDGLESNPYRSRKQRQEWEVKALLEKVPAELICLDPRALAEVDVISLEQGKKEQIERLGYDPQAKAPFQPKPKQKGRSSTASLVKRKRKVMDEEHRDKVRQSLQQQHHKEAKAKPTGARPSALDRFVR",Total (total peptides),[1],8
same,Unique (unique peptides),[1],8
same,Total (peptides),[3],3
same,Unique (peptides),[3],3
